Measured values as given in the supplement of paper PMC7238544.
Where a name gives a salt, the structure may show the parent alone. ± gives the standard deviation of the averaged measurements. The list shows a part of the results. The data scatter; read single values as rough.

Tests used:
hAMSC donor 1 [1] = assay: Hoechst total cell count ratio vs vehicle control; higher = more cells (less toxicity)
hAMSC donor 2 [2] = assay: as above
hAMSC donor 1 [3] = assay: transgenic luciferase activity (RLU/mg protein) fold change vs vehicle control (ratio); higher = more transgene expression
hAMSC donor 2 [4] = assay: as above
hAMSC donor 1 [5] = assay: transfection efficiency (EGFP+ cells / Hoechst count) fold change vs vehicle control (ratio); hAMSC are human adipose-derived mesenchymal stem cells given an EGFP-luciferase plasmid by lipofection; higher = enhanced transfection
hAMSC donor 2 [6] = assay: as above
[7] = priming compound concentration 0.2 µM
[8] = priming compound concentration 1.7 µM
[9] = priming compound concentration 13 µM

SMILES	Hoechst total cell count ratio (hAMSC donor 1 [1]; [7])	Hoechst total cell count ratio (hAMSC donor 1 [1]; [8])	Hoechst total cell count ratio (hAMSC donor 1 [1]; [9])	Hoechst total cell count ratio (hAMSC donor 2 [2]; [7])	Hoechst total cell count ratio (hAMSC donor 2 [2]; [8])	Hoechst total cell count ratio (hAMSC donor 2 [2]; [9])	transgenic luciferase activity (hAMSC donor 1 [3]; [7])	transgenic luciferase activity (hAMSC donor 1 [3]; [8])	transgenic luciferase activity (hAMSC donor 1 [3]; [9])	transgenic luciferase activity (hAMSC donor 2 [4]; [7])	transgenic luciferase activity (hAMSC donor 2 [4]; [8])	transgenic luciferase activity (hAMSC donor 2 [4]; [9])	transfection efficiency (hAMSC donor 1 [5]; [7])	transfection efficiency (hAMSC donor 1 [5]; [8])	transfection efficiency (hAMSC donor 1 [5]; [9])	transfection efficiency (hAMSC donor 2 [6]; [7])	transfection efficiency (hAMSC donor 2 [6]; [8])	transfection efficiency (hAMSC donor 2 [6]; [9])
C/C(=C\C(=O)OCCCCCCCCC(=O)O)C[C@@H]1OC[C@H](C[C@@H]2O[C@H]2[C@@H](C)[C@H](C)O)[C@@H](O)[C@H]1O [Mupirocin]	1.17 ± 0.091	1.17 ± 0.038	1.17 ± 0.062	0.858 ± 0.25	0.948 ± 0.16	1.19 ± 0.36	0.944 ± 0.45	0.469 ± 0.12	0.803 ± 0.26	1.33 ± 0.61	1.04 ± 0.37	1.86 ± 0.15	1.35 ± 0.28	1.19 ± 0.48	2.29 ± 0.89	1.43 ± 0.43	1.29 ± 0.28	1.27 ± 0.48
CNCCCCOc1ccccc1Cc1ccccc1 [Bifemelane hydrochloride]	1.05 ± 0.25	1.17 ± 0.098	1.18 ± 0.029	1.24 ± 0.34	1.06 ± 0.14	0.963 ± 0.078	0.949 ± 0.12	1.05 ± 0.28	0.123 ± 0.05	0.508 ± 0.23	0.656 ± 0.03	0.606 ± 0.091	1.15 ± 0.19	1.15 ± 0.28	0.641 ± 0.19	1.17 ± 0.32	0.997 ± 0.1	0.868 ± 0.25
COc1ccc(/C=C/C(=O)Nc2ccccc2C(=O)O)cc1OC [Tranilast]	1.18 ± 0.067	1.12 ± 0.05	1.1 ± 0.18	0.954 ± 0.038	1.19 ± 0.047	1.04 ± 0.16	0.643 ± 0.31	1.02 ± 0.2	3.66 ± 0.39	0.877 ± 0.12	0.831 ± 0.091	2.25 ± 0.59	1.28 ± 0.37	1.22 ± 0.59	1.25 ± 0.12	1.1 ± 0.16	0.865 ± 0.064	1.76 ± 0.13
CN1CCN(C2=Nc3cc(F)ccc3Cc3ccccc32)CC1 [Fluperlapine]	0.925 ± 0.1	1.32 ± 0.17	1.17 ± 0.082	1.12 ± 0.27	1.06 ± 0.042	1.02 ± 0.12	0.882 ± 0.19	0.951 ± 0.38	0.385 ± 0.37	0.472 ± 0.33	0.937 ± 0.26	1.15 ± 0.3	1.16 ± 0.71	0.935 ± 0.18	0.891 ± 0.084	1.08 ± 0.29	0.843 ± 0.13	0.921 ± 0.14
CC(C)(O)c1ccccc1CC[C@@H](SCC1(CC(=O)O)CC1)c1cccc(/C=C/c2ccc3ccc(Cl)cc3n2)c1 [Montelukast sodium]	1.26 ± 0.086	1.28 ± 0.065	1.14 ± 0.027	1.32 ± 0.19	1.22 ± 0.03	1.5 ± 0.27	0.881 ± 0.13	0.673 ± 0.17	1.07 ± 0.15	0.755 ± 0.34	0.923 ± 0.14	1.37 ± 0.22	1.01 ± 0.23	1.68 ± 0.73	0.791 ± 0.3	0.855 ± 0.16	1 ± 0.071	1.05 ± 0.28
CC(=O)N1CCN(c2ccc(OCC3COC(Cn4ccnc4)(c4ccc(Cl)cc4Cl)O3)cc2)CC1 (centres undefined) [Ketoconazole]	1.08 ± 0.18	1.28 ± 0.094	1.16 ± 0.14	1.67 ± 0.33	1.08 ± 0.021	0.933 ± 0.039	1.94 ± 0.34	3.71 ± 0.21	2.34 ± 1.5	1.13 ± 0.1	1.81 ± 0.44	4.2 ± 1.2	1.56 ± 0.33	1.68 ± 0.34	1.71 ± 0.33	1.17 ± 0.27	1.33 ± 0.11	1.7 ± 0.088
COc1cc2nc(N3CCN(C(=O)c4ccco4)CC3)nc(N)c2cc1OC [Prazosin hydrochloride hydrate]	1.39 ± 0.42	1.39 ± 0.057	0.986 ± 0.092	1.2 ± 0.36	1.01 ± 0.14	0.515 ± 0.061	0.541 ± 0.24	0.961 ± 0.26	0.28 ± 0.21	0.233 ± 0.26	0.784 ± 0.057	0.579 ± 0.29	1.23 ± 0.59	0.838 ± 0.2	1.17 ± 0.22	0.96 ± 0.12	1.03 ± 0.059	1.19 ± 0.24
COc1cccc2c1C(=O)c1c(O)c3c(c(O)c1C2=O)C[C@@](O)(C(=O)CO)C[C@@H]3O[C@H]1C[C@H](N)[C@H](O)[C@H](C)O1 [Doxorubicin hydrochloride]	0.74 ± 0.1	0.519 ± 0.073	0.241 ± 0.014	1.03 ± 0.21	0.224 ± 0.021	0.125 ± 0.023	1.22 ± 0.78	2.02 ± 0.57	0.221 ± 0.12	1.36 ± 0.24	0.951 ± 0.2	0.00305 ± 0.005	2.05 ± 0.32	1.19 ± 0.22	0.314 ± 0.058	1.41 ± 0.11	2.77 ± 0.13	0.201 ± 0.12
CC(Oc1c(Cl)cccc1Cl)C1=NCCN1 (centres undefined) [Lofexidine hydrochloride]	1.23 ± 0.046	1.16 ± 0.26	1.16 ± 0.075	0.909 ± 0.16	0.913 ± 0.095	1.71 ± 0.082	0.726 ± 0.36	0.626 ± 0.15	1.23 ± 0.27	0.867 ± 0.35	0.991 ± 0.47	0.964 ± 0.11	1.55 ± 0.67	1.39 ± 0.56	0.866 ± 0.3	1.39 ± 0.34	1.29 ± 0.12	0.854 ± 0.015
O=C(N[C@H](CO)[C@H](O)c1ccc([N+](=O)[O-])cc1)C(Cl)Cl [Chloramphenicol]	1.27 ± 0.13	1.24 ± 0.14	1.21 ± 0.03	0.919 ± 0.091	0.993 ± 0.082	1.52 ± 0.1	1.63 ± 0.83	1.32 ± 0.66	2.11 ± 0.92	0.936 ± 0.68	0.762 ± 0.088	1.48 ± 0.21	1.14 ± 0.37	0.848 ± 0.24	1.67 ± 0.93	1.28 ± 0.47	0.982 ± 0.11	1.04 ± 0.14
CN1CCN(CCCN2c3ccccc3Sc3ccc(C(F)(F)F)cc32)CC1 [Trifluoperazine hydrochloride]	1.09 ± 0.19	1.34 ± 0.051	1.29 ± 0.089	1.3 ± 0.27	0.95 ± 0.031	1.05 ± 0.088	0.747 ± 0.36	0.709 ± 0.17	0.242 ± 0.11	0.785 ± 0.037	0.341 ± 0.071	0.528 ± 0.2	1.1 ± 0.55	0.945 ± 0.26	0.949 ± 0.41	0.882 ± 0.1	0.952 ± 0.17	0.749 ± 0.019
CN1CCCC(n2nc(Cc3ccc(Cl)cc3)c3ccccc3c2=O)CC1 (centres undefined) [Azelastine hydrochloride]	1.24 ± 0.024	1.21 ± 0.16	1.14 ± 0.028	1.19 ± 0.17	1.04 ± 0.046	1.86 ± 0.2	0.714 ± 0.12	0.746 ± 0.29	1.6 ± 1.6	0.693 ± 0.14	1 ± 0.43	0.677 ± 0.14	1.25 ± 0.29	1.16 ± 0.45	0.684 ± 0.29	0.77 ± 0.16	1.02 ± 0.08	0.641 ± 0.077
CC(C)C[C@H](NC(=O)[C@@H](O)[C@H](N)Cc1ccccc1)C(=O)O [Bestatin]	1.18 ± 0.019	1.3 ± 0.049	1.1 ± 0.046	0.955 ± 0.17	1.16 ± 0.17	1.28 ± 0.28	0.842 ± 0.26	0.578 ± 0.018	1.01 ± 0.29	0.988 ± 0.5	1.04 ± 0.26	1.04 ± 0.28	1.26 ± 0.23	0.685 ± 0.063	1.33 ± 0.38	1.32 ± 0.26	1.07 ± 0.26	1.12 ± 0.39

As a short view, two of the compounds above:
SMILES	Hoechst total cell count ratio (hAMSC donor 1 [1]; [7])	Hoechst total cell count ratio (hAMSC donor 1 [1]; [8])	Hoechst total cell count ratio (hAMSC donor 1 [1]; [9])	Hoechst total cell count ratio (hAMSC donor 2 [2]; [7])	Hoechst total cell count ratio (hAMSC donor 2 [2]; [8])	Hoechst total cell count ratio (hAMSC donor 2 [2]; [9])	transgenic luciferase activity (hAMSC donor 1 [3]; [7])	transgenic luciferase activity (hAMSC donor 1 [3]; [8])	transgenic luciferase activity (hAMSC donor 1 [3]; [9])	transgenic luciferase activity (hAMSC donor 2 [4]; [7])	transgenic luciferase activity (hAMSC donor 2 [4]; [8])	transgenic luciferase activity (hAMSC donor 2 [4]; [9])	transfection efficiency (hAMSC donor 1 [5]; [7])	transfection efficiency (hAMSC donor 1 [5]; [8])	transfection efficiency (hAMSC donor 1 [5]; [9])	transfection efficiency (hAMSC donor 2 [6]; [7])	transfection efficiency (hAMSC donor 2 [6]; [8])	transfection efficiency (hAMSC donor 2 [6]; [9])
COc1ccc(/C=C/C(=O)Nc2ccccc2C(=O)O)cc1OC [Tranilast]	1.18 ± 0.067	1.12 ± 0.05	1.1 ± 0.18	0.954 ± 0.038	1.19 ± 0.047	1.04 ± 0.16	0.643 ± 0.31	1.02 ± 0.2	3.66 ± 0.39	0.877 ± 0.12	0.831 ± 0.091	2.25 ± 0.59	1.28 ± 0.37	1.22 ± 0.59	1.25 ± 0.12	1.1 ± 0.16	0.865 ± 0.064	1.76 ± 0.13
CN1CCN(C2=Nc3cc(F)ccc3Cc3ccccc32)CC1 [Fluperlapine]	0.925 ± 0.1	1.32 ± 0.17	1.17 ± 0.082	1.12 ± 0.27	1.06 ± 0.042	1.02 ± 0.12	0.882 ± 0.19	0.951 ± 0.38	0.385 ± 0.37	0.472 ± 0.33	0.937 ± 0.26	1.15 ± 0.3	1.16 ± 0.71	0.935 ± 0.18	0.891 ± 0.084	1.08 ± 0.29	0.843 ± 0.13	0.921 ± 0.14
